Results are given in words; binding and its absence hold for the method and conditions named. For some assays here: In cells and extracts the contact can be indirect. Some binding calls cover weakened binding; strength is not graded here. For some assays here: Sequences can lack the tags named with a protein. Each block holds one binder with its values, some of them ahead of it.
Key:
[1] = target: T1, GST-Tctp (Drosophila Translationally controlled tumor protein) (Drosophila melanogaster) (UniProt Q9VGS2); experiment: pull-down; GST or GST-tagged protein (4 µg) on glutathione-Sepharose 4B beads, incubated with Drosophila S2 cell lysate, 4 °C, 2 h; wash 25 mM Tris-HCl pH 7.4, 150 mM NaCl, 1% NP-40, 1 mM EDTA; western blot; only the target purified
T1 sequence: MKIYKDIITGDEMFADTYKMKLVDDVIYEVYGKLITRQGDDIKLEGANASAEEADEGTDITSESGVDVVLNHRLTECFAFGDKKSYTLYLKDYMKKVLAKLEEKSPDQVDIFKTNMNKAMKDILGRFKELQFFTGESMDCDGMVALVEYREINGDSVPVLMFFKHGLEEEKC

By UniProt entry, the sequences of proteins in these tests, tags left out. Where a name states a change or a piece, a line headed by the entry shows the natural chain unless it says otherwise.
UniProt Q9VQ93: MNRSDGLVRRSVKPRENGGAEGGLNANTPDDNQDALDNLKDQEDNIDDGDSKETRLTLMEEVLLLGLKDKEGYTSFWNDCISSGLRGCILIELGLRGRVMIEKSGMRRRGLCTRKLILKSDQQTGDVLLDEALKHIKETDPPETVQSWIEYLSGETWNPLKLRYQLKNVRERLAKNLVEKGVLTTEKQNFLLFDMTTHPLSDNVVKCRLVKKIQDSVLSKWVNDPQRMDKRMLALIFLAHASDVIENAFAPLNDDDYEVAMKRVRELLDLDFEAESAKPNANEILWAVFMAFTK

[2] = target: dGOLPH3-RFP (RFP-tagged dGOLPH3) (Drosophila melanogaster) (UniProt Q9VQ93); experiment: co-IP; RFP trap-A (ChromoTek) on lysates of pupae expressing dGOLPH3-RFP; Buffer A, 4 °C
[3] = target: T2, Tctp-HA (HA-tagged Tctp) (Drosophila melanogaster) (UniProt Q9VGS2); experiment: co-IP; anti-HA agarose beads on lysates of pupae overexpressing Tctp-HA, with or without knockdown of dGOLPH3 (RNAi); Buffer A, 4 °C; eluted with 200 mM glycine pH 2.0
T2 sequence: T1 sequence

[4] = target: GFP-dGOLPH3 (GFP-tagged dGOLPH3) (Drosophila melanogaster) (UniProt Q9VQ93); experiment: co-IP; GFP trap-A (ChromoTek) on lysates of pupae expressing GFP, GFP-dGOLPH3 or GFP-dGOLPH3 K167A-R170L; Buffer A (20 mM Tris-HCl pH 7.5, 100 mM NaCl, 5 mM MgCl2, 10% sucrose, 1 mM EDTA, 0.2% NP-40), 4 °C; blot with anti-Rheb and anti-GFP
[5] = target: GFP-dGOLPH3^K167A-R170L (Drosophila melanogaster) (UniProt Q9VQ93); experiment: as above
[6] = target: dGOLPH3 bait (pEG202) for yeast two-hybrid (Drosophila melanogaster) (UniProt Q9VQ93); experiment: two-hybrid; B42/lexA system in yeast strain EGY48; dGOLPH3 bait in pEG202, preys in pJG4-5; lacZ reporter on X-GAL plates with galactose, quantified by β-galactosidase assay

binding [1]: binds
B1: Rheb (Ras homolog enriched in brain), endogenous in S2 cells (protein, UniProt Q9VND8 1-182)
chain: MPTKERHIAMMGYRSVGKSSLCIQFVEGQFVDSYDPTIENTFTKIERVKSQDYIVKLIDTAGQDEYSIFPVQYSMDYHGYVLVYSITSQKSFEVVKIIYEKLLDVMGKKYVPVVLVGNKIDLHQERTVSTEEGKKLAESWRAAFLETSAKQNESVGDIFHQLLILIENENGNPQEKSGCLVS

binding [2]: binds
binding [3]: binds
binding [4]: binds
binding [5]: no binding
B2: Rheb (Ras homolog enriched in brain), endogenous in pupae (protein, UniProt Q9VND8 1-182)
chain: B1 chain

binding [6]: binds
B3: Tctp prey (pJG4-5) for yeast two-hybrid (protein, UniProt Q9VGS2 1-172)
chain: T1 sequence

binding [6]: binds
B4: 14-3-3ζ prey (pJG4-5) for yeast two-hybrid (protein, UniProt P29310 1-248)
chain: MSTVDKEELVQKAKLAEQSERYDDMAQAMKSVTETGVELSNEERNLLSVAYKNVVGARRSSWRVISSIEQKTEASARKQQLAREYRERVEKELREICYEVLGLLDKYLIPKASNPESKVFYLKMKGDYYRYLAEVATGDARNTVVDDSQTAYQDAFDISKGKMQPTHPIRLGLALNFSVFYYEILNSPDKACQLAKQAFDDAIAELDTLNEDSYKDSTLIMQLLRDNLTLWTSDTQGDEAEPQEGGDN

binding [6]: binds
B5: Lst8 prey (pJG4-5) for yeast two-hybrid (protein, UniProt Q9W328 1-313)
chain: MGDQQQLILATGGYDHTIKVWQAHTGNCIKTMRFVETSQVNALDRTPDKTRLAACGYQCIRLYDLESNCTAPVINFDGVQKNVTRLGFQEDGNWMFTAGEDHHVRIWDMIAAPPHCSRIFDCEAPVNAACLHPNQVEIAMGSQNGSVFLWDVKSERHERIVPEVDASIQDVAISPDGRYLAAANNKGNCYIWSLTSQDQKMSTLRPNRKIPAHSRYILRCKFSPDSRLLLTTSGDGTVCIWKTDDFSKWRELCIENYWVWDAAFSADSKWLFTASSDGIARLWKLQTKSSIRDYTGHTKAITALSFKDEIVGK

From publication PMC9701223
